Test results reported in paper doi:10.1101/252056.
Results are given in words; binding and its absence hold for the method and conditions named. Binding seen in cells or lysates may run through a third protein. Some entries that bind do so weakly or less than the wild type.

By UniProt entry, the sequences of proteins in these tests, tags left out. Residues count along the entry.
UniProt O14744: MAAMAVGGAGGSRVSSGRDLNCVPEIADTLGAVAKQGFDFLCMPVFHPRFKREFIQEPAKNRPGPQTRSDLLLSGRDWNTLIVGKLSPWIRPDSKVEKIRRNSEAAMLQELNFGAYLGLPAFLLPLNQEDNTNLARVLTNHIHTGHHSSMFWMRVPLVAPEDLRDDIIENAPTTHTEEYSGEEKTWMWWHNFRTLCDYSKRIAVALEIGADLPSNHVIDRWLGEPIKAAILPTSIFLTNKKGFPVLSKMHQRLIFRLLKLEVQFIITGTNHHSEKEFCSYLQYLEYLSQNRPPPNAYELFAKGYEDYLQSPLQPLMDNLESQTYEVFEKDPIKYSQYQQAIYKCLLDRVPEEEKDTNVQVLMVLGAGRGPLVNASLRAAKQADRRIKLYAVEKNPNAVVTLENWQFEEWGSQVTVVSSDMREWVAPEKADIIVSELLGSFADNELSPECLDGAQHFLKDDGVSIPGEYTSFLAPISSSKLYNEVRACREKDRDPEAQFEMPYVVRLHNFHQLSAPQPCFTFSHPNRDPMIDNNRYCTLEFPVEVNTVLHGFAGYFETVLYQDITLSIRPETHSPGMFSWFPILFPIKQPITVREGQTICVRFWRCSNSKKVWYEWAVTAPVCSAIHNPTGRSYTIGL
UniProt P16234, residues 24-1089: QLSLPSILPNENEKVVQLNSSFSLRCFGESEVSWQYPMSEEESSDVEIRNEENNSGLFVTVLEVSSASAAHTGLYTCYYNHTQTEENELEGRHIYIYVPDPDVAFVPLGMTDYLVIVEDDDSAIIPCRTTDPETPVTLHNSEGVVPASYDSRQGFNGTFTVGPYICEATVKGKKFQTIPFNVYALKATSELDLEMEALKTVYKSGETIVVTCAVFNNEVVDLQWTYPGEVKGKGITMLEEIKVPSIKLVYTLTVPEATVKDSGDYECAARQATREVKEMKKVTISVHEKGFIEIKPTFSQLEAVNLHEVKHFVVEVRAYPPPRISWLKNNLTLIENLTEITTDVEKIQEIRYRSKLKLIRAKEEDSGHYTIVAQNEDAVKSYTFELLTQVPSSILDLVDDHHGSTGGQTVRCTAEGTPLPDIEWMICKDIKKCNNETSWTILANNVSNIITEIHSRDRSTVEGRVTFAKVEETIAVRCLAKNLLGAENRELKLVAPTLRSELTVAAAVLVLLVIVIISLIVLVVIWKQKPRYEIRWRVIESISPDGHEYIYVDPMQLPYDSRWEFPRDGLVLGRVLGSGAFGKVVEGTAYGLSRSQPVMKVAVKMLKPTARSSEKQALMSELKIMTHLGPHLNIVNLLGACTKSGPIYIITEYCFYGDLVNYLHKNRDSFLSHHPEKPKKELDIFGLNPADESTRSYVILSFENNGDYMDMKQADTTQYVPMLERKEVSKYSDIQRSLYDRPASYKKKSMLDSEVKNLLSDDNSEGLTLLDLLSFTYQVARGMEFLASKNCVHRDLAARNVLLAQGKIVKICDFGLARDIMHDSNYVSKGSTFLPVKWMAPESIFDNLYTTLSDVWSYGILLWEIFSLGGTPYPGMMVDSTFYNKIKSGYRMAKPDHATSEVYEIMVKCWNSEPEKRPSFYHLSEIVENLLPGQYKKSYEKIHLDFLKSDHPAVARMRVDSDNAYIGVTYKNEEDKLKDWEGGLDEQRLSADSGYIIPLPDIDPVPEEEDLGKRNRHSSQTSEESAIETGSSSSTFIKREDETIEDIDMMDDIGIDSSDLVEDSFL

Key:
[1] = molecular target: myc-PRMT5 (UniProt O14744); assay: co-IP
[2] = molecular target: HA-Cbl (UniProt P22681); assay: co-IP

Substance: Platelet derived growth factor receptor α (PDGFRα) (from UniProt P16234 24-1089)
- binding [1]: binds
- binding [2]: binds
